Patent publication US20250154500A1
These are yes or no findings as the source states them, for the method shown. In cells and extracts the contact can be indirect. Some results given as binding are weak or reduced against the parent protein; the word gives no strength.

Protein sequences, listed by entry. Tags and fused reporters are not part of them.
UniProt Q8NDF8: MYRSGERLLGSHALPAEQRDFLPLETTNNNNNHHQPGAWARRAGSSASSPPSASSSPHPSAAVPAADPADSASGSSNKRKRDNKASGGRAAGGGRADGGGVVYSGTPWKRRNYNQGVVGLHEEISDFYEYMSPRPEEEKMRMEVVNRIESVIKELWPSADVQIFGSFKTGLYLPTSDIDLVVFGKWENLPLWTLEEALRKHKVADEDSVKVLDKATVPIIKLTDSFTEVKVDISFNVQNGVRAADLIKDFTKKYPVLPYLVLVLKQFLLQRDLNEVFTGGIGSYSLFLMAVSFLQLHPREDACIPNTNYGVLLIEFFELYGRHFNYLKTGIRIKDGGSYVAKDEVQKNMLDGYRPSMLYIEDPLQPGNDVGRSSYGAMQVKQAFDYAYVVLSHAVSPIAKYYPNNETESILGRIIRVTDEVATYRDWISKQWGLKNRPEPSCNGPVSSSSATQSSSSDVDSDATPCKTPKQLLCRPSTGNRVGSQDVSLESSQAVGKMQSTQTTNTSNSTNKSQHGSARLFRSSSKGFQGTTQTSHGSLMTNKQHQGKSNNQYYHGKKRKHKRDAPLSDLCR
UniProt Q5XG87: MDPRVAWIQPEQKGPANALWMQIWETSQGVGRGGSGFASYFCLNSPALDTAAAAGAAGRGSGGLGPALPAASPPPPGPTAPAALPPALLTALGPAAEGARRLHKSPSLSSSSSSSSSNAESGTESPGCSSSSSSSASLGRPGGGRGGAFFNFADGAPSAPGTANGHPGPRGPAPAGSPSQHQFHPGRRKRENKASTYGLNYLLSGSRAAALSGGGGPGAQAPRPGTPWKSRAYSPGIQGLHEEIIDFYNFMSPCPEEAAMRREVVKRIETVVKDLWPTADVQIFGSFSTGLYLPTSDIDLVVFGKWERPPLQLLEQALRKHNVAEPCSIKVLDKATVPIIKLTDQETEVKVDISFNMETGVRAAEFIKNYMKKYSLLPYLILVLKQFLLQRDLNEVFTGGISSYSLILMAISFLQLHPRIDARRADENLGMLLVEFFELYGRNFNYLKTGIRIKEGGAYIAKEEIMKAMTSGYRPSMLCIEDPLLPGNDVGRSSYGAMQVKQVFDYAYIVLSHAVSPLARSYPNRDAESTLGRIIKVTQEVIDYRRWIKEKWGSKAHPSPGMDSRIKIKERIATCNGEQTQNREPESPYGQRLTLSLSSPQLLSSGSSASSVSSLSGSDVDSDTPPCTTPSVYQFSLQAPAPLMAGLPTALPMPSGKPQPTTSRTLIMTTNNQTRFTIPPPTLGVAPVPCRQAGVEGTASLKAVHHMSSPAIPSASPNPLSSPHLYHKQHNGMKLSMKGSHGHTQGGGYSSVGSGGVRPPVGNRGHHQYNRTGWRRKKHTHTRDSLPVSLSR
UniProt Q9C0B9: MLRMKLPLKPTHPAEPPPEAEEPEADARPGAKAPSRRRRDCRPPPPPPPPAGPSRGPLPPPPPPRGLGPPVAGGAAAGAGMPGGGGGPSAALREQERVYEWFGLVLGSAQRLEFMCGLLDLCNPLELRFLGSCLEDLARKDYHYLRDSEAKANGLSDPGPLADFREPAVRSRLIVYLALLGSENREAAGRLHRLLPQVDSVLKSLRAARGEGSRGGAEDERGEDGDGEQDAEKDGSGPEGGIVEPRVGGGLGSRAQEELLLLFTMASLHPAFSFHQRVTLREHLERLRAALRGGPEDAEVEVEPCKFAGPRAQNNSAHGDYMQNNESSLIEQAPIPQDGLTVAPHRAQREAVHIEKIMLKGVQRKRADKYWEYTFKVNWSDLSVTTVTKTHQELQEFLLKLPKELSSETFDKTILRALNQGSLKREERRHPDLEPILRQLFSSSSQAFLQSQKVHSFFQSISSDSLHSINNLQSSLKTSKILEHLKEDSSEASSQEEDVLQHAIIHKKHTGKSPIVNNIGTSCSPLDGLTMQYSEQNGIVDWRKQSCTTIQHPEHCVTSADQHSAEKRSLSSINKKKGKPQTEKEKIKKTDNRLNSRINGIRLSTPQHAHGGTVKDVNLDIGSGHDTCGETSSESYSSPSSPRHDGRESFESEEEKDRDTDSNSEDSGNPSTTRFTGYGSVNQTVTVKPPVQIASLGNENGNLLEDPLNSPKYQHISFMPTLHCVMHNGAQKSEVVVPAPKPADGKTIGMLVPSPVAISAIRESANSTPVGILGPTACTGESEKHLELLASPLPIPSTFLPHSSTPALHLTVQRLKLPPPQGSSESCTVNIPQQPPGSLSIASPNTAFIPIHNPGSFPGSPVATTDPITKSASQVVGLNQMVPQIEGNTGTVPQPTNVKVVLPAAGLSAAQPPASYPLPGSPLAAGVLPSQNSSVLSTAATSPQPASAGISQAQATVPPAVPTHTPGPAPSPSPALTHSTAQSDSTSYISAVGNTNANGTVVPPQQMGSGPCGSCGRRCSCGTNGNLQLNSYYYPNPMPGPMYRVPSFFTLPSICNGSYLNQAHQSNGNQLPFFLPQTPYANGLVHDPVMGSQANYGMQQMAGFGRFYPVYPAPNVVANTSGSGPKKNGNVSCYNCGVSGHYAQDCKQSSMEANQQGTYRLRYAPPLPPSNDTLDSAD

Assays:
TENT4B (human) [1] = molecular target: TENT4B (human) (UniProt Q8NDF8); assay: anti-FLAG co-immunoprecipitation from HeLa ZCCHC2 KO cells, western blot
TENT4A (human) [2] = molecular target: TENT4A (human) (UniProt Q5XG87); assay: as above
TENT4A (human) [3] = molecular target: TENT4A (human) (UniProt Q5XG87); assay: co-immunoprecipitation with anti-TENT4A from RNase A-treated HeLa lysate, western blot
TENT4A (human) [4] = molecular target: TENT4A (human) (UniProt Q5XG87); assay: co-immunoprecipitation with anti-TENT4A, HeLa parental and TENT4 double KO lysates, western blot
TENT4B (human) [5] = molecular target: TENT4B (human) (UniProt Q8NDF8); assay: co-immunoprecipitation with anti-TENT4B from RNase A-treated HeLa lysate, western blot
TENT4B (human) [6] = molecular target: TENT4B (human) (UniProt Q8NDF8); assay: co-immunoprecipitation with anti-TENT4B, HeLa parental and TENT4 double KO lysates, western blot

Measured: binding

FLAG-tagged full-length ZCCHC2 (from UniProt Q9C0B9 1-1178)
binds: TENT4B (human) [1] | TENT4A (human) [2]

ZCCHC2 (from UniProt Q9C0B9 1-1178)
binds: TENT4A (human) [3] | TENT4A (human) [4] | TENT4B (human) [5] | TENT4B (human) [6]
